Taken from: PubChem BioAssay AID1259254 (NCATS, 2017)
Shown is one part, drawn at random, of about 59,000 reagents. About 1,550 of all reagents (2.6%) were called active. 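G2 share is only a proxy for re-replication; each gene was hit by three separate siRNAs, and active genes were retested.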 Reagents against one gene are numbered here. Further read-outs or replicates are left out here. Not stated in the record: the amount of reagent.

- Assay: 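Gene knock-downs that lead to re-replication, shown by excess G2 DNA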 (primary screen)
- Cells: human HCT116 colorectal cancer cells
- Reagents: single siRNA against human genes
- Duration: 3 days
- Read-out: 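Imaged Hoechst DNA stain sorts each cell into a cycle phase by DNA amount; per plate, G2 fraction set to 0% for non-targeting and 100% for GMNN siRNA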
- Reading the numbers: G2 robust z-score and G2 cells, % of GMNN control: higher = more G2 cells, more excess DNA replication
- Call rule: 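An siRNA counts as active if its G2 robust z-score lies at least 5 MADs above the screen median; here such calls match roughly 38% of GMNN control or more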

With ADGRL3 #1, how do the results read?
G2 robust z-score: 1.11; G2 cells, % of GMNN control: 10.8; activity call: inactive

What did the screen give for ADGRL3 #2?
G2 robust z-score: 0.766; G2 cells, % of GMNN control: 8.36; activity call: inactive

What did the screen give for ADGRL3 #3?
G2 robust z-score: -0.91; G2 cells, % of GMNN control: -3.43; activity call: inactive

Which result is listed for TMEM184B #1?
G2 robust z-score: 0.682; G2 cells, % of GMNN control: 7.77; activity call: inactive

For TMEM184B #2, what was measured?
G2 robust z-score: -0.3; G2 cells, % of GMNN control: 0.854; activity call: inactive

With TMEM184B #3, how do the results read?
G2 robust z-score: -0.964; G2 cells, % of GMNN control: -3.81; activity call: inactive

What did the screen give for FAM241A #1?
G2 robust z-score: -0.182; G2 cells, % of GMNN control: 1.69; activity call: inactive

With FAM241A #2, what was measured?
G2 robust z-score: 0.945; G2 cells, % of GMNN control: 9.61; activity call: inactive

Which result is listed for FAM241A #3?
G2 robust z-score: -0.466; G2 cells, % of GMNN control: -0.309; activity call: inactive

How did the screen score PCDHGA9 #1?
G2 robust z-score: -1.37; G2 cells, % of GMNN control: -6.68; activity call: inactive

How did the screen score PCDHGA9 #2?
G2 robust z-score: 1.61; G2 cells, % of GMNN control: 14.3; activity call: inactive

With PCDHGA9 #3, what was measured?
G2 robust z-score: 0.47; G2 cells, % of GMNN control: 6.28; activity call: inactive

Individual results from the list:
FAM241A #2, G2 cells, % of GMNN control → 9.61
Result of ADGRL3 #3 in “G2 cells, % of GMNN control”: -3.43

Further records follow:
What is on record for LRRC10 #1?
G2 robust z-score: 5.18; G2 cells, % of GMNN control: 39.4; activity call: active

With LRRC10 #2, how do the results read?
G2 robust z-score: -0.251; G2 cells, % of GMNN control: 1.2; activity call: inactive

With LRRC10 #3, what was measured?
G2 robust z-score: -0.973; G2 cells, % of GMNN control: -3.88; activity call: inactive

How did the screen score SPATA13 #1?
G2 robust z-score: 3.8; G2 cells, % of GMNN control: 29.7; activity call: inactive

With SPATA13 #2, what does the deposit list?
G2 robust z-score: -0.664; G2 cells, % of GMNN control: -1.71; activity call: inactive

With SPATA13 #3, how do the results read?
G2 robust z-score: 0.675; G2 cells, % of GMNN control: 7.72; activity call: inactive

For LOC440742 #1, what was measured?
G2 robust z-score: -0.485; G2 cells, % of GMNN control: -0.442; activity call: inactive

Which result is listed for LOC440742 #2?
G2 robust z-score: 0.653; G2 cells, % of GMNN control: 7.56; activity call: inactive

For LOC440742 #3, what does the deposit list?
G2 robust z-score: 0.347; G2 cells, % of GMNN control: 5.41; activity call: inactive

With DUSP16 #1, what does the deposit list?
G2 robust z-score: -0.0772; G2 cells, % of GMNN control: 2.42; activity call: inactive

What is on record for DUSP16 #2?
G2 robust z-score: -0.582; G2 cells, % of GMNN control: -1.12; activity call: inactive

For DUSP16 #3, what does the deposit list?
G2 robust z-score: 1.45; G2 cells, % of GMNN control: 13.2; activity call: inactive

For MAP3K21 #1, what was measured?
G2 robust z-score: -0.74; G2 cells, % of GMNN control: -2.24; activity call: inactive

For MAP3K21 #2, what was measured?
G2 robust z-score: -0.106; G2 cells, % of GMNN control: 2.22; activity call: inactive

Which result is listed for MAP3K21 #3?
G2 robust z-score: -0.531; G2 cells, % of GMNN control: -0.765; activity call: inactive

With MATR3 #1, what does the deposit list?
G2 robust z-score: -0.759; G2 cells, % of GMNN control: -2.38; activity call: inactive

For MATR3 #2, how do the results read?
G2 robust z-score: -0.808; G2 cells, % of GMNN control: -2.72; activity call: inactive

With MATR3 #3, what does the deposit list?
G2 robust z-score: -0.807; G2 cells, % of GMNN control: -2.71; activity call: inactive
